The list shows a part of the results. The main result of the screen is listed elsewhere. These columns were measured beside it and carry no call. Most of these compounds were active or inconclusive in the main read-out, so they are no random draw. The note in brackets gives the kind of curve behind each potency; many fits are weak.
Test: qHTS Assay for Lipid Storage Modulators in Drosophila S3 Cells;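 as to cell number change: cells counted by Cell Tracker Red CMTPX staining in the red channel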
Conditions: BODIPY lipid droplet fluorescence, 18-24 h; for cell number change: measured here: cell count max response, cells fed with added oleic acid
Procedure, shortened: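 Drosophila S3 cells loaded with oleic acid (400 uM, as added) and compounds at several concentrations; lipid droplets imaged by 488-nm laser-scanning cytometry, 500–530 nm intensity and object ratio to cell channel. Percent activity normalized to 20 uM Triacsin C.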

[1] = measured here: cell number channel AC50, cells fed with added oleic acid
[2] = measured here: lipid fluorescence (Fed channel) AC50, cells fed with added oleic acid

Row | Compound | cell number change [%] | AC50 [1] | AC50 [2]
1 | Oc1ccc(N=Cc2c(O)ccc3ccccc23)cc1 | -41.2 | 29.1 µM [falling, single point] | 
2 | COc1ccc(CCNC(=O)C(=O)NCC2OCCN2S(=O)(=O)c2ccc(C)cc2)cc1 (stereo unspecified) | 10.7 |  | 6.51 µM [rising, single point]
3 | O=C(Cn1ccccc1=O)NCc1ccc(F)cc1 | 17.5 |  | 
4 | CCSc1ncnc2c(C#N)c3n(c12)CCCCC3 | -5.92 |  | 6.51 µM [rising, single point]
5 | Cc1ccc(N(C(=O)Cn2nnc(-c3ccc(F)cc3)n2)C(CC(C)C)C(=O)NCC2CCCO2)cc1 (stereo unspecified) | -10.6 |  | 
6 | Cc1ccc(-c2ccc(C#N)c(=O)n2CC(=O)N(C)C)cc1 | -14.6 |  | 0.82 µM [rising, full curve]
7 | COc1ccc(S(=O)(=O)N(C)C2CCS(=O)(=O)C2)cc1OC (stereo unspecified) | 2.97 |  | 
8 | CC(O)C(=O)N/N=C/c1ccccc1C(=O)O (stereo unspecified) | -15.2 |  | 0.00517 µM [falling, full curve, poor fit]
9 | COc1ccc(/C=C/c2nc3ccccc3n2Cc2ccc(OC)c(OC)c2)cc1 | -41.2 | 0.0058 µM [falling, full curve, poor fit] | 
10 | Cc1ccccc1N=C1NC(=O)/C(=C/c2cccn2C)S1 | -8.02 |  | 6.51 µM [rising, single point]
11 | CCC(C)NC(=S)N1CCN(C)CC1 (stereo unspecified) | 14.7 | 0.92 µM [falling, full curve] | 0.92 µM [falling, full curve]
12 | COc1cc(CCC(=O)Nc2ccc(S(=O)(=O)NC3=NCCCCC3)cc2)cc(OC)c1OC | 39.7 | 8.2 µM [rising, partial curve, poor fit] | 8.2 µM [rising, single point]
13 | Cc1cccn2c(=O)c(/C=C(\C#N)C(N)=O)c(N3CCN(c4cccc(Cl)c4)CC3)nc12 | 18 |  | 29.1 µM [falling, single point]
14 | COc1ccc(-n2nnnc2SCC(=O)NC(=O)Nc2ccc3c(c2)OCCO3)cc1 | 41.5 |  | 6.51 µM [falling, single point]
15 | COc1ccc(N=Cc2ccc[nH]2)cc1 | 12.4 |  | 0.231 µM [rising, full curve]
16 | CCOC(=O)c1c(C)c(C(=O)NCCN2CCOCC2)c(C)n1CC | -4.7 |  | 0.13 µM [falling, full curve, poor fit]
17 | CSc1ccccc1-c1nnc(-c2ccc(C)cc2)o1 | 4.89 |  | 6.51 µM [falling, single point]
18 | Cc1ccc(NC(=O)c2ccc([N+](=O)[O-])o2)c(C)c1 | -15.1 |  | 
19 | CC(C)OCCCn1c(=O)c2ccccc2n2c(CCC(=O)NCc3ccccn3)nnc12 | -53.4 | 16.4 µM [falling, single point] | 0.291 µM [falling, full curve]
20 | O=C(NC1CCCC1)C(c1cccnc1)N(C(=O)c1csnn1)c1ccccc1Cl (stereo unspecified) | 1.35 |  | 
21 | COCCn1c(=NC(=O)c2cc3ccccc3oc2=O)sc2cc(S(N)(=O)=O)ccc21 |  | 6.51 µM [rising, single point] | 0.326 µM [rising, full curve, poor fit]

Three entries from above, ordered by formula weight, ascending:
Row | Compound | cell number change [%] | AC50 [1] | AC50 [2]
15 | COc1ccc(N=Cc2ccc[nH]2)cc1 | 12.4 |  | 0.231 µM [rising, full curve]
18 | Cc1ccc(NC(=O)c2ccc([N+](=O)[O-])o2)c(C)c1 | -15.1 |  | 
19 | CC(C)OCCCn1c(=O)c2ccccc2n2c(CCC(=O)NCc3ccccn3)nnc12 | -53.4 | 16.4 µM [falling, single point] | 0.291 µM [falling, full curve]

(next part)

Row | Compound | cell number change [%] | AC50 [1] | AC50 [2]
22 | Cc1cc(=O)c2ccccc2n1CC(=O)NCc1ccccc1 | -6.43 |  | 
23 | O=C(Nc1ccc(N2CCCCCC2)cc1)c1ccccc1Cl | 85.5 | 6.51 µM [falling, single point] | 
24 | CCOC(=O)C1(Cc2cccc(OC)c2)CCN(Cc2ccon2)CC1 | -0.468 |  | 
25 | S=C(NCCCN1CCOCC1)NCCCN1CCOCC1 | -0.314 |  | 9.2 µM [falling, partial curve]
26 | Cc1ccc(-c2onc(C)c2C)cc1S(=O)(=O)N1CC(C)Oc2ccccc21 (stereo unspecified) | -46.5 | 2.06 µM [falling, full curve] | 20.6 µM [falling, partial curve]
27 | Cc1csc(N(C)C(=O)CSc2nnc(COc3cccc4ccccc34)o2)n1 | -26.5 |  | 
28 | Cc1ccc(N(CC(N)=O)C2SC(=O)N(Cc3cccc(C(=O)O)c3)C2=O)cc1 (stereo unspecified) | -3.57 |  | 
29 | O=C(O)CCCn1cc(NC(=O)c2ccc(Br)o2)cn1 | -13.6 | 1.12 µM [falling, full curve, poor fit] | 3.55 µM [falling, partial curve]
30 | O=C(CSc1nc2scc(-c3ccccc3)c2c(=O)[nH]1)Nc1ccccc1 | -25.4 |  | 
31 | COc1ccc(OC)c(Nc2nnc(C)c(=O)[nH]2)c1 |  | 0.58 µM [rising, single point] | 29.1 µM [rising, single point]
32 | Cc1oc(-c2ccccc2Cl)nc1CS(=O)(=O)CC(=O)NC1CCCC1 | 4.9 |  | 20.6 µM [falling, single point]
33 | O=[N+]([O-])c1cc(S(=O)(=O)N2CCCC2)ccc1N/N=C/c1ccncc1 | -16.8 |  | 1.84 µM [falling, partial curve, poor fit]
34 | CCNc1ccc([N+](=O)[O-])cc1 | -13.3 |  | 0.517 µM [falling, full curve]
35 | COc1ccccc1CN1CCN(C(=O)c2ccncc2)CC1 | -47.3 | 0.116 µM [falling, full curve] | 0.731 µM [falling, full curve]
36 | COc1ccc(C2C(C#N)=C3NC(=O)c4c(sc5c4CCCCC5)N3C3=C2C(=O)CC(C)(C)C3)cc1 (stereo unspecified) | 7.87 |  | 29.1 µM [falling, single point]
37 | Cc1ccc(NC(=O)C2CCCN(S(=O)(=O)c3cnc[nH]3)C2)c(Br)c1 (stereo unspecified) |  |  | 16.4 µM [rising, single point]
38 | COc1ccc(S(=O)(=O)N(C)CC(=O)N2CCC(C)CC2)cc1Cl | 0.219 |  | 11.6 µM [rising, partial curve]
39 | CCCCC(=O)N/N=C(\C)CC(=O)Nc1ccccc1Br |  |  | 13 µM [rising, partial curve]
40 | O=C(O)c1c2c(nc3ccccc13)/C(=C/c1ccccc1[N+](=O)[O-])CCC2 | -1.59 |  | 
41 | NC(=O)N/N=C/c1ccccc1OCc1cccc2ccccc12 | 51.6 | 29.1 µM [rising, single point] | 1.3 µM [falling, partial curve]

Reference: PubChem BioAssay AID2685 (National Center for Advancing Translational Sciences (NCATS), 2010)
